According to PubChem BioAssay AID248 (DTP/NCI, 2004):
The list does not hold the whole screen: it is rich in T/C values a quarter to a half above the control, in often repeated tests (any T/C) and in doses without a T/C. Further doses and runs are listed elsewhere. T/C: endpoint of the treated group in % of that of the vehicle group. Some doses have a count of surviving animals in place of a T/C: the source files T/C as zero there, which appears to mark a toxic dose or a test without result, not a measured value. Some doses without a T/C left all or most animals alive at the check, yet need not have been tolerated: the source hardly ever lists a survival T/C far under the control, and the zero likely stands for such cases as well. Counts of survivors are from the toxicity check (mostly the fifth day) where no day follows; animals may have died later. Schedule codes are those of the source, read here as Q, the interval in days (D) or hours (H), X, the number of doses. Some schedules carry Z or #; the key to these is not given. Some entries hold several experiments; the values are given in rising order. Some molecules as drawn cover several salts, stereoisomers or complexes of the source; a dose is that of the sample tested. Where survival is the endpoint, this PubChem deposit counts one and a half times the control or more as active, and values a quarter to a half above the control carry no call in these data; other NCI protocols may use other cut-offs.

System: L1210 leukemia ip in BDF1 mice, survival T/C
Test: NCI In Vivo Anticancer Drug Screen. Data for tumor model L1210 Leukemia (intraperitoneal) in B6D2F1 (BDF1) mice
Conditions: higher T/C = longer survival
[1] = T/C endpoint: mean survival time, dose: 100.0 mg/kg/injection, schedule: Q04DX003 (ip), vehicle: saline
[2] = T/C endpoint: mean survival time, dose: 200.0 mg/kg/injection, schedule: Q04DX003 (ip), vehicle: saline
[3] = T/C endpoint: mean survival time, dose: 400.0 mg/kg/injection, schedule: Q04DX003 (ip), vehicle: saline
[4] = T/C endpoint: mean survival time, dose: 400.0 mg/kg/injection, schedule: Q01DX001 (ip), vehicle: saline
[5] = T/C endpoint: mean survival time, dose: 200.0 mg/kg/injection, schedule: Q04DX003 (ip), vehicle: saline with Tween-80
[6] = T/C endpoint: mean survival time, dose: 400.0 mg/kg/injection, schedule: Q04DX003 (ip), vehicle: saline with Tween-80
[7] = T/C endpoint: mean survival time, dose: 10.0 mg/kg/injection, schedule: Q01DX001 (ip), vehicle: saline
[8] = T/C endpoint: mean survival time, dose: 20.0 mg/kg/injection, schedule: Q01DX001 (ip), vehicle: saline
[9] = T/C endpoint: mean survival time, dose: 40.0 mg/kg/injection, schedule: Q01DX001 (ip), vehicle: saline
[10] = T/C endpoint: mean survival time, dose: 75.0 mg/kg/injection, schedule: Q01DX001 (ip), vehicle: saline
[11] = T/C endpoint: mean survival time, dose: 80.0 mg/kg/injection, schedule: Q01DX001 (ip), vehicle: saline
[12] = T/C endpoint: mean survival time, dose: 150.0 mg/kg/injection, schedule: Q01DX001 (ip), vehicle: saline
[13] = T/C endpoint: mean survival time, dose: 300.0 mg/kg/injection, schedule: Q01DX001 (ip), vehicle: saline
[14] = T/C endpoint: mean survival time, dose: 100.0 mg/kg/injection, schedule: Q01DX001 (ip), vehicle: saline
[15] = T/C endpoint: mean survival time, dose: 200.0 mg/kg/injection, schedule: Q01DX001 (ip), vehicle: saline
[16] = T/C endpoint: mean survival time, dose: 100.0 mg/kg/injection, schedule: Q04DX003 (ip), vehicle: Klucel (hydroxypropylcellulose) (HPC)
[17] = T/C endpoint: mean survival time, dose: 200.0 mg/kg/injection, schedule: Q04DX003 (ip), vehicle: Klucel (hydroxypropylcellulose) (HPC)
[18] = T/C endpoint: mean survival time, dose: 400.0 mg/kg/injection, schedule: Q04DX003 (ip), vehicle: Klucel (hydroxypropylcellulose) (HPC)

Cc1cccc(N2CCNCC2)c1
survivor count (T/C endpoint: mean survival time, dose: 100.0 mg/kg/injection, schedule: Q04DX002 (ip), vehicle: saline with Tween-80): 0 of 3 | survivor count [1]: 0 of 6 | survivor count (T/C endpoint: mean survival time, dose: 200.0 mg/kg/injection, schedule: Q04DX002 (ip), vehicle: saline with Tween-80): 0 of 3 | survivor count [2]: 0 of 6 | survivor count (T/C endpoint: mean survival time, dose: 400.0 mg/kg/injection, schedule: Q04DX002 (ip), vehicle: saline with Tween-80): 0 of 3 | survivor count [3]: 0 of 6

CC(=O)OC1CC2CC1C1C3C=CC(C3)C21 (stereo unspecified)
survivor count [1]: 3 of 6 | survivor count [2]: 5 of 6 | survivor count [3]: 0 of 6

Cn1cnc2c([N+](C)(C)C)ncnc21
survivor count (T/C endpoint: mean survival time, dose: 135.0 mg/kg/injection, schedule: Q04DX003 (ip), vehicle: saline): 2 of 6 | T/C [2]: 137 % of control | survivor count [2]: 0 of 6 | survivor count (T/C endpoint: mean survival time, dose: 300.0 mg/kg/injection, schedule: Q04DX003 (ip), vehicle: saline): 0 of 6 | survivor count [3]: 1 of 6 and 2 of 6

O=C(O)c1ccc(/C=N/NC(=O)c2cccc3ccccc23)cc1
survivor count [4]: 3 of 4

CCCCNS(=O)(=O)c1ccc(Cl)c([N+](=O)[O-])c1
survivor count (T/C endpoint: mean survival time, dose: 400.0 mg/kg/injection, schedule: Q04DX003 (ip), vehicle: gum acacia): 5 of 6

C=C[CH2][Sn]([c]1ccccc1)([c]1ccccc1)[c]1ccccc1
survivor count [5]: 3 of 3 | survivor count [6]: 0 of 3

CN(C)C(=O)O/N=C(\c1ccccc1)C(F)(F)F
survivor count (T/C endpoint: mean survival time, dose: 4.0 mg/kg/injection, schedule: Q01DX001 (ip), vehicle: saline): 0 of 6 | survivor count (T/C endpoint: mean survival time, dose: 5.0 mg/kg/injection, schedule: Q01DX001 (ip), vehicle: saline): 0 of 6 | survivor count (T/C endpoint: mean survival time, dose: 8.0 mg/kg/injection, schedule: Q01DX001 (ip), vehicle: saline): 0 of 6 | survivor count [7]: 1 of 6 | survivor count [8]: 0 of 6 | survivor count [9]: 0 of 6 | survivor count [10]: 0 of 6 | survivor count [11]: 0 of 6 | survivor count [12]: 0 of 6 | survivor count [13]: 0 of 6

C/C(=C\C(=O)O)CBr
survivor count (T/C endpoint: mean survival time, dose: 200.0 mg/kg/injection, schedule: Q01DX009 (ip), vehicle: saline with Tween-80): 1 of 3

C1CCN(CCC2CCNCC2)C1
survivor count [2]: 3 of 6 | survivor count [3]: 0 of 6

CC[P+](CCCCCCCCC[P+](CC)(Cc1ccccc1)c1ccccc1)(Cc1ccccc1)c1ccccc1 (stereo unspecified)
survivor count [7]: 1 of 6 | survivor count [8]: 0 of 6 | survivor count [9]: 0 of 6 | survivor count [11]: 0 of 6 | survivor count [14]: 0 of 6 | survivor count [15]: 0 of 6 | survivor count [4]: 0 of 6

Cc1ccc(N=C=C(c2ccc(Cl)cc2)c2ccc(Cl)cc2)cc1
survivor count (T/C endpoint: mean survival time, dose: 12.5 mg/kg/injection, schedule: Q01DX009 (ip), vehicle: DMSO): 0 of 3 | survivor count (T/C endpoint: mean survival time, dose: 25.0 mg/kg/injection, schedule: Q01DX009 (ip), vehicle: DMSO): 1 of 3 | survivor count (T/C endpoint: mean survival time, dose: 50.0 mg/kg/injection, schedule: Q04DX002 (ip), vehicle: DMSO): 0 of 3 | survivor count (T/C endpoint: mean survival time, dose: 100.0 mg/kg/injection, schedule: Q04DX002 (ip), vehicle: DMSO): 0 of 3 | survivor count (T/C endpoint: mean survival time, dose: 200.0 mg/kg/injection, schedule: Q04DX002 (ip), vehicle: DMSO): 0 of 3 | survivor count (T/C endpoint: mean survival time, dose: 400.0 mg/kg/injection, schedule: Q04DX002 (ip), vehicle: DMSO): 0 of 3

CCc1cccc(CC)c1NC(=O)Nc1cc(Cl)ccc1C
survivor count (T/C endpoint: mean survival time, dose: 100.0 mg/kg/injection, schedule: Q04DX003 (ip), vehicle: saline with Tween-80): 6 of 6 | survivor count [5]: 6 of 6

CCOC(=O)CCN(CC(C)C)C(=S)Nc1ccccc1
survivor count (T/C endpoint: mean survival time, dose: 200.0 mg/kg/injection, schedule: Q01DX Z (ip), vehicle: methylcellulose (MC)): 5 of 6

CSc1ncnc2n[nH]c(Br)c12
survivor count (T/C endpoint: mean survival time, dose: 200.0 mg/kg/injection, schedule: Q01DX005 (ip), vehicle: saline): 5 of 5

Clc1ccc2c(c1)-c1ccccc1C1=NCCN12
survivor count (T/C endpoint: mean survival time, dose: 20.0 mg/kg/injection, schedule: Q01DX009 (ip), vehicle: Klucel (hydroxypropylcellulose) (HPC)): 0 of 6 | survivor count (T/C endpoint: mean survival time, dose: 40.0 mg/kg/injection, schedule: Q04DX003 (ip), vehicle: Klucel (hydroxypropylcellulose) (HPC)): 0 of 6 | survivor count [16]: 0 of 6 | survivor count [17]: 0 of 6 | survivor count [18]: 0 of 6

COc1ccc2c(c1)C/C(=N\O)C2=O
survivor count [5]: 1 of 6 | survivor count [6]: 0 of 6

Oc1cc(O)c(CN2CCCCC2)cc1CN1CCCCC1
survivor count [15]: 1 of 6 | survivor count [4]: 0 of 6

O=C(O)c1c[nH]c2c(Cl)cc(Cl)cc2c1=O
survivor count [14]: 4 of 4

CC(Oc1ccc(Cl)cc1)C(/C=N/N=C(N)N)=N/N=C(N)N (stereo unspecified)
survivor count [1]: 0 of 6 | survivor count [2]: 0 of 6 | survivor count [3]: 0 of 6

Cc1cc(C)c(N)c(C)n1
survivor count [16]: 1 of 6 | survivor count [17]: 0 of 6 | survivor count [18]: 0 of 6

O=C1OC(C(O)CO)C(O)=C1O (stereo unspecified)
survivor count (T/C endpoint: mean survival time, dose: 16.0 mg/kg/injection, schedule: Q01DX009 (ip), vehicle: saline): 10 of 10 | survivor count (T/C endpoint: mean survival time, dose: 32.0 mg/kg/injection, schedule: Q01DX009 (ip), vehicle: saline): 10 of 10 | survivor count (T/C endpoint: mean survival time, dose: 400.0 mg/kg/injection, schedule: Q03HX024 (ip), vehicle: saline): 6 of 6 | survivor count (T/C endpoint: mean survival time, dose: 600.0 mg/kg/injection, schedule: Q03HX024 (ip), vehicle: saline): 2 of 6 | survivor count (T/C endpoint: mean survival time, dose: 800.0 mg/kg/injection, schedule: Q01DX009 (ip), vehicle: saline): 1 of 6 | survivor count (T/C endpoint: mean survival time, dose: 1200.0 mg/kg/injection, schedule: Q01DX009 (ip), vehicle: saline): 1 of 6 | survivor count (T/C endpoint: mean survival time, dose: 1600.0 mg/kg/injection, schedule: Q01DX005 (iv), vehicle: saline): 1 of 6 | survivor count (T/C endpoint: mean survival time, dose: 1600.0 mg/kg/injection, schedule: Q01DX009 (ip), vehicle: saline): 0 of 6 and 2 of 6 | survivor count (T/C endpoint: median survival time, dose: 2000.0 mg/kg/injection, schedule: Q01DX001 (ip), vehicle: water): 4 of 6 | survivor count (T/C endpoint: median survival time, dose: 3000.0 mg/kg/injection, schedule: Q01DX001 (ip), vehicle: water): 2 of 6 | survivor count (T/C endpoint: median survival time, dose: 4000.0 mg/kg/injection, schedule: Q01DX001 (oral), vehicle: water): 5 of 8

CC(C)(C)/C=N/NP(Br)(c1ccccc1)(c1ccccc1)c1ccccc1
survivor count [10]: 0 of 6 | survivor count [12]: 0 of 6 | survivor count [13]: 0 of 6

NP(=O)(OCCCOCc1ccccc1)N(CCCl)CCCl (stereo unspecified)
survivor count (T/C endpoint: mean survival time, dose: 1000.0 mg/kg/injection, schedule: Q01DX001 (ip), vehicle: saline): 2 of 6

NC(=O)NN=C1COC(c2ccccc2)OC1 (stereo unspecified)
survivor count (T/C endpoint: mean survival time, dose: 200.0 mg/kg/injection, schedule: Q01DX009 (ip), vehicle: saline): 4 of 6 | survivor count [3]: 0 of 6
